Results: publication PMC4493003
No constants are given. Whether binding was seen depends on the method and setting. In cells and extracts the contact can be indirect. Some entries that bind do so weakly or less than the wild type. Values belong to the substance of their own block, whether it stands above or below them.

Amino acid sequences for entries named in this document (tags omitted). A change or cut given only in a name is not applied to a line headed by its entry. Chains listed by the source or under a name are the forms on record and can include a tag or linker. Residues count along the entry.
UniProt P06332: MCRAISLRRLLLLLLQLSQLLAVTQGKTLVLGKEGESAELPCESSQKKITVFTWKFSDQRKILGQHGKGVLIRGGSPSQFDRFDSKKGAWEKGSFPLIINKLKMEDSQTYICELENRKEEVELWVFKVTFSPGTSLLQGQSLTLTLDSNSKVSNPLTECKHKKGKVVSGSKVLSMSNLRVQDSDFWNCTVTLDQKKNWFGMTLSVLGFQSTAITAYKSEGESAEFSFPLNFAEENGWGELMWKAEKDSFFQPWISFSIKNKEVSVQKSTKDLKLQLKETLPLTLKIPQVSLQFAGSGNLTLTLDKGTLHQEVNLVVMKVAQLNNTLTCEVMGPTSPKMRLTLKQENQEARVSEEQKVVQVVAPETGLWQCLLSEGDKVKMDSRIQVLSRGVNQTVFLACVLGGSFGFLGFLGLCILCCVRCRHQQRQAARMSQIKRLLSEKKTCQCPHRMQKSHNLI
CD4T^TMD (G403V/G406L) mutant of C-terminally truncated CD4 (amino acids 1-421), fused to mEGFP or mCherry (P06332, form named): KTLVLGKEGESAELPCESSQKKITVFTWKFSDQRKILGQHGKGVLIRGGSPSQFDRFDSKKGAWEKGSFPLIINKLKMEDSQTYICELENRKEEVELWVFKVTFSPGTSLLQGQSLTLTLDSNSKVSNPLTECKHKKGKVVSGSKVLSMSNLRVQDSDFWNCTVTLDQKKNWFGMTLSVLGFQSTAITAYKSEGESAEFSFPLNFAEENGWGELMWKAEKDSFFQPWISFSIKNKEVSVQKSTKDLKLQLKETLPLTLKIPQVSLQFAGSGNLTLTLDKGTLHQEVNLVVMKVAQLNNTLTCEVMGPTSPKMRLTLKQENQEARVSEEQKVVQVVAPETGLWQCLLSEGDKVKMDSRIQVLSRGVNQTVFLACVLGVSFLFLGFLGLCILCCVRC
UniProt P31041, residues 20-179: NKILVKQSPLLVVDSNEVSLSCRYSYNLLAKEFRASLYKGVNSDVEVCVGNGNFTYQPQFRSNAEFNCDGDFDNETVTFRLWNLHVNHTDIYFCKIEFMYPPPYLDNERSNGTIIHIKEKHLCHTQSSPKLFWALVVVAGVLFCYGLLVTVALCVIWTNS

Legend:
[1] = molecular target: C-terminally truncated CD4, CD4T (amino acids 1-421), fused to mEGFP or mCherry (UniProt P06332); test: FRET or BRET; donor (mEGFP) recovery after photoablation of the acceptor (mCherry), TIRFM of live 58α-β- hybridoma cells on mobile lipid bilayers containing agonist pMHC (MCC-E^k) and ICAM-1 (TCR engaged); 37°C, 5% CO2
[2] = molecular target: C-terminally truncated CD4, CD4T (amino acids 1-421), fused to mEGFP or mCherry (UniProt P06332); test: FRET or BRET; donor (mEGFP) recovery after photoablation of the acceptor (mCherry), TIRFM of live 58α-β- hybridoma cells adhered to glass coverslips, TCR and CD4 not engaged (steady-state); 37°C, 5% CO2
[3] = molecular target: C-terminally truncated CD28, CD28T (amino acids 1-179), fused to mEGFP or mCherry (UniProt P31041); test: FRET or BRET; donor (mEGFP) recovery after photoablation of the acceptor (mCherry), TIRFM of live 58α-β- hybridoma cells on mobile lipid bilayers containing agonist pMHC (MCC-E^k) and ICAM-1 (TCR engaged); 37°C, 5% CO2
[4] = molecular target: C-terminally truncated CD28, CD28T (amino acids 1-179), fused to mEGFP or mCherry (UniProt P31041); test: FRET or BRET; donor (mEGFP) recovery after photoablation of the acceptor (mCherry), TIRFM of live 58α-β- hybridoma cells adhered to glass coverslips, TCR and CD4 not engaged (steady-state); 37°C, 5% CO2
[5] = molecular target: CD4T^TMD (G403V/G406L) mutant of C-terminally truncated CD4 (amino acids 1-421), fused to mEGFP or mCherry (UniProt P06332); test: FRET or BRET; donor (mEGFP) recovery after photoablation of the acceptor (mCherry), TIRFM of live 58α-β- hybridoma cells on mobile lipid bilayers containing agonist pMHC (MCC-E^k) and ICAM-1 (TCR engaged); 37°C, 5% CO2
[6] = molecular target: CD4T^TMD (G403V/G406L) mutant of C-terminally truncated CD4 (amino acids 1-421), fused to mEGFP or mCherry (UniProt P06332); test: FRET or BRET; donor (mEGFP) recovery after photoablation of the acceptor (mCherry), TIRFM of live 58α-β- hybridoma cells adhered to glass coverslips, TCR and CD4 not engaged (steady-state); 37°C, 5% CO2
[7] = molecular target: wild type CD4 (CD4WT) fused to mEGFP or mCherry (UniProt P06332); test: FRET or BRET; donor (mEGFP) recovery after photoablation of the acceptor (mCherry), TIRFM of live 58α-β- hybridoma cells on mobile lipid bilayers containing agonist pMHC (MCC-E^k) and ICAM-1 (TCR engaged); 37°C, 5% CO2
[8] = molecular target: wild type CD4 (CD4WT) fused to mEGFP or mCherry (UniProt P06332); test: FRET or BRET; donor (mEGFP) recovery after photoablation of the acceptor (mCherry), TIRFM of live 58α-β- hybridoma cells adhered to glass coverslips, TCR and CD4 not engaged (steady-state); 37°C, 5% CO2

binding [1]: binds weakly
binding [2]: binds weakly
Substance: C-terminally truncated CD4, CD4T (amino acids 1-421), fused to mEGFP or mCherry (from UniProt P06332 27-421) (receptor)

binding [3]: binds
binding [4]: binds
Substance: C-terminally truncated CD28, CD28T (amino acids 1-179), fused to mEGFP or mCherry (from UniProt P31041 20-179) (receptor)

binding [5]: binds weakly
binding [6]: binds weakly
Substance: CD4T^TMD (G403V/G406L) mutant of C-terminally truncated CD4 (amino acids 1-421), fused to mEGFP or mCherry (from UniProt P06332 27-421) (receptor)

binding [7]: binds weakly
binding [8]: binds weakly
Substance: wild type CD4 (CD4WT) fused to mEGFP or mCherry (from UniProt P06332 27-457) (receptor)
